US10342774B2, “Topical pharmaceutical composition of acitretin” (priority 2013, dated 2019)
At least one read-out could not be matched to a standard name with certainty.

Assay: Saturation solubility of acitretin in co-solvent mixture
Conditions: diethylene glycol monoethyl ether, dimethyl isosorbide, polysorbate 80 in w/w ratio of about 3.3:24.1:1

SMILES: COc1cc(C)c(/C=C/C(C)=C/C=C/C(C)=C/C(=O)O)c(C)c1C [acitretin, all-trans-9-(4-methoxy-2,3,6-trimethylphenyl)-3,7-dimethyl-2,4,6,8-nonatetraenoic acid]
- increase of solubility of acitretin in comparison to solubility in water: approximately 10,000 times
